Results are given in words; binding and its absence hold for the method and conditions named. In cells and extracts the contact can be indirect. Some results given as binding are weak or reduced against the parent protein; the word gives no strength.
What was measured:
[1] = target: T1, endogenous SIRT1 (mouse (endogenous in NSC-34)) (UniProt Q923E4); assay: co-IP; endogenous proteins in NSC‐34 cells; the endogenous sirtuin precipitated, endogenous GARS detected by blot
T1 sequence: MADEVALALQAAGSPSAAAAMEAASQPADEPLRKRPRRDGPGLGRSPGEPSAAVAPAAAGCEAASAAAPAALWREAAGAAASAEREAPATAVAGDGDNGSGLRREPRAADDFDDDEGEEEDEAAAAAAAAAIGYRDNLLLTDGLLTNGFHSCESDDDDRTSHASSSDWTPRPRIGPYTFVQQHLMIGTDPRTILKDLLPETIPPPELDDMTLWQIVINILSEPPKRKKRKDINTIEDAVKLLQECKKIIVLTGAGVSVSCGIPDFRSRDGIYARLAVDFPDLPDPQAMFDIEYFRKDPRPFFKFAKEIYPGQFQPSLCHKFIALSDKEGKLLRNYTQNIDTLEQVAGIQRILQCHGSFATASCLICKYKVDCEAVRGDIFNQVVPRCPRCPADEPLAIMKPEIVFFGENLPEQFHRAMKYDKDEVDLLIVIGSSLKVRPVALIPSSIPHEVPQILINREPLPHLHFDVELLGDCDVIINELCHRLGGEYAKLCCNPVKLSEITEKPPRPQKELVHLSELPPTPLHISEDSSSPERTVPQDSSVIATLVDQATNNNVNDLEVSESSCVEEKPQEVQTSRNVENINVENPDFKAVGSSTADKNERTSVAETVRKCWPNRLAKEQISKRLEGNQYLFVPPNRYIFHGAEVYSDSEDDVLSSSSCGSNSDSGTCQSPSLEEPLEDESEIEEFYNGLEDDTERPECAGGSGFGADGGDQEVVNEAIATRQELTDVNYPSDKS

[2] = target: T2, endogenous SIRT2 of NSC‐34 cells (mouse (endogenous in NSC-34)) (UniProt Q8VDQ8); assay: as above
T2 sequence: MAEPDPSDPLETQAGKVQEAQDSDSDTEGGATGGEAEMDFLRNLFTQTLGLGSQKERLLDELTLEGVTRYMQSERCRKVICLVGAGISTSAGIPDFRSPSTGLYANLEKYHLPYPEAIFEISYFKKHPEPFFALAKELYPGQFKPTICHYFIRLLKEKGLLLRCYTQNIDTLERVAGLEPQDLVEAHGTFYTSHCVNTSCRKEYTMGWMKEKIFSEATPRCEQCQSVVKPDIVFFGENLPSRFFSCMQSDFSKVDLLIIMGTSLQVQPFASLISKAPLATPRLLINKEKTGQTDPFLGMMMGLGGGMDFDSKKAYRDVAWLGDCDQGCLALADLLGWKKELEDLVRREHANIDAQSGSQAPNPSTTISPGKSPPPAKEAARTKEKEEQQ

- binding [1]: no binding
- binding [2]: binds
B1: endogenous glycyl‐tRNA synthetase (GARS) of NSC‐34 cells (enzyme, UniProt Q9CZD3 34-729)
chain: LSAPAQPAASRSSMDSAEELLAPLRLAVRQQGDFVRKLKEDKAPQVDVDRAVAELKARKRVLEAKELALQPKDDIVDRAKMEDTLKRRFFYDQAFAIYGGVSGLYDFGPVGCALKNNIIQAWRQHFIQEEQILEIDCTMLTPEPVLKTSGHVDKFADFMVKDVKNGECFRADHLLKAHLQKLMSDKKCSAEKKSEMESVLAQLDNYGQQELADLFVNYNVKSPTTGNDLSPPVPFNLMFQTFIGPGGNMPGYLRPETAQGIFLNFKRLLEFNQGKLPFAAAQIGNSFRNEISPRSGLIRVREFTMAEIEHFVDPTEKDHPKFQSVADLCLYLYSAKAQVTGQSARKMRLGDAVEQGVINNSVLGYFIGRIYLYLTKVGISPDKLRFRQHMENEMAHYACDCWDAESKTSYGWIEIVGCADRSCYDLSCHARATKVPLVAEKPLKEPKTVNVVQFEPNKGAVGKAYKKDAKLVLEYLSACDECYISEMELLLSEKGEFTIETEGKTFQLTKDMVSVKRFQKTLHVEEVVPSVIEPSFGLGRIMYTILEHTFHVREGDEQRTFFSFPAVVAPFKCSVLPLSQNQEFMPFVKELSEALTRNGVSHKVDDSSGSIGRRYARTDEIGVAFGITIDFDTVNKTPHTATLRDRDSMRQIRAEVSELPNVVRDLANGNITWADVEARYPLFEGQETGKKETVEE

Source: PMC8208790
